From article PMC9389594 come the findings set out here.

The target of experiment [1] is T1, FKBP4 (human (endogenous in HCT116)) (UniProt Q02790).
T1 sequence: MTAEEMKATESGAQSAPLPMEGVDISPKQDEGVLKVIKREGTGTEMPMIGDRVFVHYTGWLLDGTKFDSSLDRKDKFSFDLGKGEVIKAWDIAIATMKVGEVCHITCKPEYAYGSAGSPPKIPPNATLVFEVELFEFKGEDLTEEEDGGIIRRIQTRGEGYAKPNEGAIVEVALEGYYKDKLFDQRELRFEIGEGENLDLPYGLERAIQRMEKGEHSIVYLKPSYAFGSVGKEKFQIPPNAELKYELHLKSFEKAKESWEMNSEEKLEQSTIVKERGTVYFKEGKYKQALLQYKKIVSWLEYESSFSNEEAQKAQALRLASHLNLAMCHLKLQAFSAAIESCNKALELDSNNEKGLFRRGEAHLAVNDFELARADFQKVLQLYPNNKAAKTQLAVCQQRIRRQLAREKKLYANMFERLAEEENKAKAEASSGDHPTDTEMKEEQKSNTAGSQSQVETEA
As to the kind of experiment: co-IP; immunoprecipitation of endogenous FKBP4 with anti-FKBP4 antibody from lysate of mitochondria of HCT116 cells; co-IP buffer 50 mM Tris pH 7.4, 150 mM NaCl, 2 mM EDTA, 1% NP-40; overnight 4°C; Protein-A/G-Sepharose.

The target of experiment [2] is T2, recombinant GST-tagged FKBP4 (UniProt Q02790).
T2 sequence: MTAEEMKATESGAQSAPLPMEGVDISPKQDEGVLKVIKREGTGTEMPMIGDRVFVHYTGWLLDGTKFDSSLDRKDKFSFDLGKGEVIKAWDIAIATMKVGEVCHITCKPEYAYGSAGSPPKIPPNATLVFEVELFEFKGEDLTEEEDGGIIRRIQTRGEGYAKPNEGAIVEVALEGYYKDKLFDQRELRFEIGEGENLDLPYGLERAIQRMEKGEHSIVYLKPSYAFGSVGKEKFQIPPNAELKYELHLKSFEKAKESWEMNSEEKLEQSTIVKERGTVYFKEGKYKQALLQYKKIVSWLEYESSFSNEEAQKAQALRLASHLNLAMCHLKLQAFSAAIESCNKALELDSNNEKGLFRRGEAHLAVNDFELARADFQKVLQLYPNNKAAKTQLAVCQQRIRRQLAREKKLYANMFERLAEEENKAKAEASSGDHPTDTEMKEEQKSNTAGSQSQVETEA
As to the kind of experiment: pull-down; GST pull-down with recombinant GST-tagged FKBP4 and 6xHis-tagged COA6; both purified.

Results are given in words; binding and its absence hold for the method and conditions named. For some of these results: In cells and extracts the contact can be indirect. Some results given as binding are weak or reduced against the parent protein; the word gives no strength. For some of these results: Where a sequence is shown, tags or fusion partners need not be part of it.

B1: SCO2 (protein, UniProt O43819 42-266)
chain: GPAETGGQGQPQGPGLRTRLLITGLFGAGLGGAWLALRAEKERLQQQKRTEALRQAAVGQGDFHLLDHRGRARCKADFRGQWVLMYFGFTHCPDICPDELEKLVQVVRQLEAEPGLPPVQPVFITVDPERDDVEAMARYVQDFHPRLLGLTGSTKQVAQASHSYRVYYNAGPKDEDQDYIVDHSIAIYLLNPDGLFTDYYGRSRSAEQISDSVRRHMAAFRSVLS
Turning to B1, the binding entry in experiment [1] is recorded as “binds”.

B2: SCO1 (protein, UniProt O75880 68-301)
chain: STARPPPPWSQKGPGDSTRPSKPGPVSWKSLAITFAIGGALLAGMKHVKKEKAEKLEKERQRHIGKPLLGGPFSLTTHTGERKTDKDYLGQWLLIYFGFTHCPDVCPEELEKMIQVVDEIDSITTLPDLTPLFISIDPERDTKEAIANYVKEFSPKLVGLTGTREEVDQVARAYRVYYSPGPKDEDEDYIVDHTIIMYLIGPDGEFLDYFGQNKRKGEIAASIATHMRPYRKKS
With B2, the binding entry in experiment [1] is recorded as “binds”.

B3: COA6 (protein, UniProt Q5JTJ3 1-125)
chain: MGPGGPLLSPSRGFLLCKTGWHSNRLLGDCGPHTPVSTALSFIAVGMAAPSMKERQVCWGARDEYWKCLDENLEDASQCKKLRSSFESSCPQQWIKYFDKRRDYLKFKEKFEAGQFEPSETTAKS
Take B3: the binding entry in experiment [1] is on record as “binds”.

B4: recombinant 6xHis-tagged COA6 (protein, UniProt Q5JTJ3 1-125)
chain: MGPGGPLLSPSRGFLLCKTGWHSNRLLGDCGPHTPVSTALSFIAVGMAAPSMKERQVCWGARDEYWKCLDENLEDASQCKKLRSSFESSCPQQWIKYFDKRRDYLKFKEKFEAGQFEPSETTAKS
Regarding B4, in experiment [2], the binding entry is “binds”.
